In publication PMC5995852:
These are yes or no findings as the source states them, for the method shown. In cells and extracts the contact can be indirect.

By UniProt entry, the sequences of proteins in these tests, tags left out.
UniProt Q9JIR4: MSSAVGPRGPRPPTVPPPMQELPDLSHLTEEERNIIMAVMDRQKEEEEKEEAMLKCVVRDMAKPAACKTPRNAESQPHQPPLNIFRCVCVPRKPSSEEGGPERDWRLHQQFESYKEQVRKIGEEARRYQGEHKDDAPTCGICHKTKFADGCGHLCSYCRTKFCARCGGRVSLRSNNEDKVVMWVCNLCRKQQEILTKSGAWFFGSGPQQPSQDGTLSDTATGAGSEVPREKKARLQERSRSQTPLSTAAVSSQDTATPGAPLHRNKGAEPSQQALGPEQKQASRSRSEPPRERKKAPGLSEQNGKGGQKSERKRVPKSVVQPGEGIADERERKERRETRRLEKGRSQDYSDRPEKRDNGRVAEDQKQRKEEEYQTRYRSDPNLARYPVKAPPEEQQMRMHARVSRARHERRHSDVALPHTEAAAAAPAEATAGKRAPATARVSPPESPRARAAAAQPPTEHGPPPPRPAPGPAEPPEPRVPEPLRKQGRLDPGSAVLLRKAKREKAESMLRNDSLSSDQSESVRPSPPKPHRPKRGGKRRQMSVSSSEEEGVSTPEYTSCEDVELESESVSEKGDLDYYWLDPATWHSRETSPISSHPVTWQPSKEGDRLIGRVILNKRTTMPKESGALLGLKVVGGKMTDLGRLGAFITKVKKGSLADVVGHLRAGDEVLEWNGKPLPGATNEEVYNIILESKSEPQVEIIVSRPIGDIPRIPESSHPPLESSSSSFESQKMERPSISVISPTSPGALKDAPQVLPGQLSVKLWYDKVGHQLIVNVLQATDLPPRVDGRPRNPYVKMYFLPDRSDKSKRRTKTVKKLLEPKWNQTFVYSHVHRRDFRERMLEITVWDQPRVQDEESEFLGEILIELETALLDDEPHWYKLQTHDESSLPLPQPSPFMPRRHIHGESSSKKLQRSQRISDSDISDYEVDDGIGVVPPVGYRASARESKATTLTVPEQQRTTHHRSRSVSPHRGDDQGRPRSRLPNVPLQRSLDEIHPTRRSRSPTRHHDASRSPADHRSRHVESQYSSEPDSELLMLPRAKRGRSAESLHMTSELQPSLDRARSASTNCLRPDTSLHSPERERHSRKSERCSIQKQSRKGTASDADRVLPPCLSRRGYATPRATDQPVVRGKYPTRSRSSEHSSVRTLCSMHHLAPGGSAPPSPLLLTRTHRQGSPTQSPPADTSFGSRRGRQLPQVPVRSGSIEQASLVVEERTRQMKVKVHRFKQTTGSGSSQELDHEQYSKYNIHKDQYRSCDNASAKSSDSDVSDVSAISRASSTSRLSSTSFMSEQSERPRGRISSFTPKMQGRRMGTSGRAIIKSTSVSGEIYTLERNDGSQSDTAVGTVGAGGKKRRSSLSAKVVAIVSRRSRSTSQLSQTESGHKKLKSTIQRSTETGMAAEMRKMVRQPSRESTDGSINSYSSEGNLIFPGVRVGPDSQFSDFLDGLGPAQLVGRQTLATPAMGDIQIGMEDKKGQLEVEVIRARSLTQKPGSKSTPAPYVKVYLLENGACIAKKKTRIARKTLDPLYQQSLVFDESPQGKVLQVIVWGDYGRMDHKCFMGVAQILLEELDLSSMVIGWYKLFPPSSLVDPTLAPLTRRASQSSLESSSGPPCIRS

Key:
HA-tagged RIM1 (HA-RIM1) = HA-tagged RIM1 (HA-RIM1) (UniProt Q9JIR4); test: co-IP; HEK293T/HEK293 cells co-transfected with two tagged proteins; immunoprecipitation (HA or GluN1 antibody where told) and immunoblot
[1] = target: GFP-tagged NMDAR subunit GluN1 (GFP-GluN1) (UniProt P35439); test: as above
[2] = target: GFP-tagged NMDAR subunit GluN1 (GFP-GluN1) (UniProt P35439); test: co-IP; HEK293T cells co-transfected with HA-RIM1, GFP-GluN1 and GFP-GluN2A, or HA-RIM1, GFP-GluN1 and GFP-GluN2B; immunoprecipitation with GluN2A or GluN2B antibody
[3] = target: GFP-tagged NMDAR subunit GluN2A (GFP-GluN2A) (UniProt Q00959); test: as above

| Substance | binding (HA-tagged RIM1 (HA-RIM1)) | binding [1] | binding [2] | binding [3] |
| --- | --- | --- | --- | --- |
| GFP-tagged NMDAR subunit GluN1 (GFP-GluN1) (from UniProt P35439 19-938) (receptor) | no binding | – | – | – |
| GFP-tagged NMDAR subunit GluN2A (GFP-GluN2A) (from UniProt Q00959 23-1464) (receptor) | no binding | – | – | – |
| HA-tagged RIM1 (HA-RIM1) (from UniProt Q9JIR4 1-1615) | – | no binding | no binding | no binding |
